# From PubChem BioAssay AID493014 (National Center for Advancing Translational Sciences (NCATS), 2011)
# Among all 340,000 compounds or so, about 170 (0.05%) were called active. Inconclusive means that the source gave no clear call. Such entries were picked first, then a sample of the others. Calls come from the whole dose curve; as a rule, active = well fitted inhibition curve with a large enough effect in the signal ratio, with a control signal flat (not every such curve was filed as active); inconclusive = small, poorly fitted or top-dose-only effect, or effect the other way, or a change in a side signal; inactive = flat fitted curve, though single readings scatter; the % refers to the signal ratio. Potencies of inconclusive entries are doubtful fits and often do not repeat.
# Assay: qHTS Assay to Find Inhibitors of Chronic Active B-Cell Receptor Signaling;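 for activity change, negative = inhibition: plate controls were basal doxycycline-induced cells for no effect and cells given 10 µM MG132 for full effect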
# Details: ABC-DLBCL IkBa-CBG/CBR reporter, luminescence ratio (green luciferase fused to IkBa over red control in TMD8 lymphoma cells), 4 h; activity change, negative = inhibition: at 46.1 µM (top of the series)
# Procedure, shortened: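 Doxycycline induced both beetle luciferases in TMD8 lymphoma cells; IKK-driven degradation limits the IkappaBalpha-fused green signal, while red luminescence normalises for cell number and nonspecific effects. Compounds tested up to 46 uM, 4 hrs.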
# Potency is the fitted concentration of half-maximal effect.
SMILES,Potency,"activity change, negative = inhibition"
Cn1c2ccc(Cl)cc2c2nc3ccccc3nc21,"inconclusive: 7.31 µM [rising, partial curve, poor fit]",–
COc1ccc(N(CC(=O)Nc2cccc(N(C)S(C)(=O)=O)c2)S(=O)(=O)c2ccccc2)cc1Cl,–,inconclusive: 3.92%
Cc1n(Cc2ccccc2)c2ccccc2[n+]1Cc1ccccc1,–,inconclusive: -11.2%
Cc1ccc(SCc2nc(N)nc(Nc3ccccc3C)n2)c(C)c1,–,inactive: -0.646%
Cc1nn(-c2ccc(Cl)cc2)c(NC(=O)C(C)C)c(-c2ccccc2)c1=O,–,inconclusive: 0.808%
O=C(NCCNC(=O)c1cc(OCC(F)(F)F)ccc1OCC(F)(F)F)Nc1ccc(Cl)cc1,–,inconclusive: 13.6%
CC(Sc1ncnc2sc(-c3ccccc3)cc12)C(=O)NCC1CCCO1 (stereo not drawn),–,inactive: 9.7%
C[C@]12CCC3C(CC=C4C[C@@H](O)CC[C@@]43C)C1CCC2[C@]1(C)CCC(=O)O1 (stereo partly drawn),–,inconclusive: -14%
O=C(Nc1nc(-c2ccc(Cl)s2)cs1)c1cccs1,"inconclusive: 22.4 µM [falling, single point]",–
COc1ccc(OC)c(-c2cc(C(=O)Nc3c(C)nn(Cc4ccc(Cl)cc4)c3C)no2)c1,–,inactive: -16%
O=C(O)c1cccc(S(=O)(=O)Nc2ccc3c(c2)OCO3)c1,–,inconclusive: 3.26%
CCn1c(C)c(C2=CCN(S(=O)(=O)c3ccc(C)cc3)CC2)c2ccccc21,–,inactive: -0.768%
Cc1ccccc1-n1sc2cc(F)ccc2c1=O,"inconclusive: 5.01 µM [cytotoxic, single point]",–
O=C(Nc1ccc(F)cc1F)c1noc2c1CCC2,"inconclusive: 23.1 µM [falling, partial curve]",–
CCCN(C1CCS(=O)(=O)C1)S(=O)(=O)c1cc(OC)ccc1OC (stereo not drawn),–,inconclusive: 1.19%
O=C(COC(=O)c1cccs1)NCC1CCCCC1,–,inconclusive: 7.47%
Cc1cccnc1NC(=O)CNC(=O)c1sc2ccccc2c1Cl,–,inconclusive: -0.234%
N/C(=N\OC(=O)c1ccc(Cl)cc1Cl)c1ccccc1,–,inconclusive: 1.93%
CC(=O)Nc1cccc(C(=O)N2CCN(S(=O)(=O)c3ccc4ccccc4c3)CC2)c1,–,inactive: -10.4%
COC(=O)c1cc(S(=O)(=O)NCCc2sccc2C)c[nH]1,–,inactive: -10.3%
CC(=O)NC1=NN(C(C)=O)C(c2sccc2C)S1 (stereo not drawn),"inconclusive: 32.6 µM [falling, single point]",–

SMILES,Potency,"activity change, negative = inhibition"
CCN1CCN(c2cc(C)c3cc(NC(=O)CCC(=O)N4CCN(c5ccccc5)CC4)ccc3n2)CC1,–,inactive: -0.395%
O=C(Nc1ccc(Cl)cc1C(=O)NCC1CCCO1)c1ccc(Cl)cc1Cl (stereo not drawn),–,inconclusive: 13.5%
Cc1cccc(-c2nc3ccc(C(=O)NCCN4CCN(C)CC4)cc3nc2-c2cccc(C)c2)c1,"inconclusive: 35.5 µM [falling, single point]",–
COc1cc(OC)cc(-c2cc3cc4c(cc3cn2)OCO4)c1,"inconclusive: 10.3 µM [falling, partial curve, poor fit]",–
CC(C)c1cc(C(=O)NC2CCCc3c2cnn3-c2ccccc2F)no1 (stereo not drawn),–,inactive: 5.73%
COc1ccccc1C(=O)Nc1cccc(C(=O)N2CCOCC2)c1,–,inconclusive: 4%
C=CCn1cc(C(=O)NCCCOCC)c(=O)c2cc(S(=O)(=O)N(CC)CC)ccc21,–,inconclusive: 3.98%
COc1c(O)ccc(/C=N\NC(=O)c2ccc3c(c2)OCO3)c1[N+](=O)[O-],–,inconclusive: -13.8%
COc1ccc(C(C(=O)NCc2ccccc2)N(Cc2cccnc2)C(=O)c2snc(C(N)=O)c2N)cc1OC (stereo not drawn),–,inconclusive: 1.58%
Nc1nonc1-n1nnc(C(=O)N/N=C/c2ccc(OCc3cccc(Cl)c3)cc2)c1CN1CCCCC1,–,inactive: 7.95%
CC1CC1c1ccc(/C=C(\C#N)C(=O)Nc2ccccc2Cl)o1 (stereo not drawn),–,inactive: -11.1%
O=C(CN1CCCCCCC1)N/N=C/c1ccc([N+](=O)[O-])o1,–,inactive: -2.34%
O=C(NC(C(=O)c1ccccc1)n1ccc(=O)[nH]c1=O)c1ccccc1 (stereo not drawn),"inconclusive: 14.6 µM [falling, partial curve]",–
Cc1cc(C(=O)N/N=C2\CC(=O)CC(C)(C)C2)c2ccccc2n1,–,inconclusive: -3.6%
CC(=O)Nc1ccc2nc(CN3CCC(CO)(CCc4ccccc4)CC3)ccc2c1,–,inactive: 2.2%
CCOC(=O)N1CCN(S(=O)(=O)c2ccc(C(=O)Nc3nc4ccccc4s3)cc2)CC1,"inconclusive: 3.98 µM [falling, partial curve, poor fit]",–
CCOc1ccc(NC(=S)Nc2ccc(C)c([N+](=O)[O-])c2)cc1,–,inactive: -15%
Cc1cc(C)c2nc(N3CCCC(C(=O)N4CCC(C(N)=O)CC4)C3)sc2c1 (stereo not drawn),"inconclusive: 16.4 µM [falling, single point]",–
CC(C)N1CCC(=NNC(=O)c2ccccc2[N+](=O)[O-])CC1,–,inconclusive: -34.3%
CC1CC(C)CN(c2ncc3c(n2)CC(c2ccc(Cl)cc2)CC3=O)C1 (stereo not drawn),–,inactive: 1.29%
CN1CCN(CC(=O)O)CC1,–,inactive: -3.83%

SMILES,Potency,"activity change, negative = inhibition"
CN(C)c1ccc(/C=C(/C#N)C(=O)NCc2ccccc2)o1,"inconclusive: 18.4 µM [falling, single point]",–
CCOC(=O)C1=C(COC(=O)/C=C/c2cccc(F)c2)NC(=O)NC1C (stereo not drawn),–,inactive: -1.44%
O=C(NCCCN1CCCC1=O)C(=O)NCC1OCCN1S(=O)(=O)c1ccc(Br)cc1 (stereo not drawn),–,inconclusive: 0.391%
Cc1cnc(NC(=O)c2sc(Nc3ccccc3)nc2N)o1,–,inconclusive: 14.6%
O=C(C1CC(=O)N(c2ccccc2)C1)N1CCCCCC1 (stereo not drawn),–,inactive: 2.43%
CC(=O)N1CCC(=NNc2ccc(S(N)(=O)=O)cc2[N+](=O)[O-])CC1,–,inconclusive: -17.2%
N#Cc1c(N)n(-c2cccc(O)c2)c2nc3ccccc3nc12,"inconclusive: 12.6 µM [rising, partial curve, poor fit]",–
CCC(=O)Nc1nc(=S)ss1,–,inconclusive: -1.18%
CCc1c(C(=O)Nc2ccc(C)c(C)c2)[nH]c(C)c1C(C)=O,–,inconclusive: 4.8%
COc1cc(/C=C(\C#N)c2nc3ccccc3n2C)cc(OC)c1O,–,inconclusive: -2.15%
O=C(c1nc[nH]c1C(=O)N1CCc2ccccc2C1)N1CCc2ccccc2C1,–,inactive: 4.09%
O=C(Nc1nccs1)C1CCN(S(=O)(=O)c2c(Cl)cccc2Cl)CC1,–,inconclusive: 15.7%
Nc1c(-c2ccccc2)cnc2ncnn12,–,inconclusive: -1.89%
COc1cc(OC)cc(C(=O)NNC(=O)CCNS(=O)(=O)c2ccc(Br)cc2)c1,–,inactive: -8.29%
CC1CCCN(Cc2cnc(Cl)s2)C1 (stereo not drawn),–,inactive: 2.96%
O=C(CNC(=O)c1ccco1)N=Nc1c(O)n(CCc2ccccc2)c2ccccc12,"inconclusive: 11.2 µM [falling, partial curve]",–
Fc1cc(Cl)c(OCc2noc(-c3ccsc3)n2)c(Cl)c1,–,inconclusive: 11.1%
Cc1nc2c(F)c(F)c(C(F)(F)F)c(F)c2[nH]1,–,inconclusive: 1.63%
Clc1ccc2c(NCc3ccco3)ncnc2c1,–,inactive: 26.3%
COc1ccc2c(c1)CCc1sc(NC(=O)c3ccco3)nc1-2,"inconclusive: 0.00184 µM [rising, full curve, poor fit]",–
COCCN(CCOC)Cc1c(C)[nH]c2ccccc2c1=O,–,inconclusive: 8.6%

# Look-ups from the list.
# For activity change, negative = inhibition, COc1cc(OC)cc(C(=O)NNC(=O)CCNS(=O)(=O)c2ccc(Br)cc2)c1 is listed with inactive: -8.29%
# For activity change, negative = inhibition, CCC(=O)Nc1nc(=S)ss1 is listed with inconclusive: -1.18%
# For activity change, negative = inhibition, CC1CCCN(Cc2cnc(Cl)s2)C1 (stereo not drawn) is listed with inactive: 2.96%

# (continued)

SMILES,Potency,"activity change, negative = inhibition"
O=C(NC1CCCCC1)C1CCN(c2nnnn2-c2ccccc2)CC1,–,inconclusive: 3.23%
Cc1cc(C)n(-c2nnc(N3CCN(c4ccccc4)CC3)nn2)n1,"inconclusive: 20 µM [falling, partial curve]",–
O=C(Nc1ccc2c(c1)OCO2)[C@@H]1CCCN1S(=O)(=O)c1cccc2cccnc12,–,inconclusive: -21.9%
CC(C)c1ccc(NC(=O)c2cccc(Br)c2)cc1,"inconclusive: 35.5 µM [falling, partial curve, poor fit]",–
CN1CCN(C(=O)c2cccc(COc3cc(Cl)ccc3Cl)c2)CC1,–,inconclusive: 14.7%
CCOC(=O)c1sc2ncnc(NCc3ccco3)c2c1C,–,inactive: 11.5%
COc1cccc(CN(C(=O)c2ccco2)C2CCS(=O)(=O)C2)c1 (stereo not drawn),–,inconclusive: 4.59%
Cc1cc(C(C)(C)C)nc2[nH]n(-c3ccccc3)c(=O)c12,"inconclusive: 0.651 µM [rising, full curve]",–
Cc1ccccc1CSCC(=O)c1c(N)n(CC(C)C)c(=O)n(C)c1=O,–,inconclusive: 11.9%
Oc1ccc(-c2nc3ccccc3s2)cc1,–,inconclusive: 54.7%
COc1ccc(N(C(=O)c2cc3ccccc3oc2=O)C2C=CS(=O)(=O)C2)cc1 (stereo not drawn),–,inactive: 6.16%
NC(=O)c1ccc(SCC(=O)OCC(=O)N2CCN(C(=O)c3ccco3)CC2)c([N+](=O)[O-])c1,–,inconclusive: -4.62%
O=C(COC(=O)COc1ccccc1)Nc1ncc([N+](=O)[O-])s1,"inconclusive: 18.4 µM [falling, partial curve]",–
Cc1[nH]c2ccc(OC(F)(F)F)cc2c1CCN1C(=O)c2ccc(C(=O)O)cc2C1=O,–,inconclusive: 0.27%
COc1ccccc1Nc1nnc(SCc2cc(=O)n3cc(C)ccc3n2)s1,"inconclusive: 8.2 µM [cytotoxic, partial curve]",–
Cc1ccc(S(=O)(=O)N2CCCC2CNC(=O)C(=O)NC2CC2)cc1 (stereo not drawn),–,inactive: 7.13%
Cc1cccc2c1CC(C)(C)N=C2C1=C(O)CCCC1=O,–,inconclusive: -5.95%
CCc1nn2cc(C(=O)c3cc(Cl)ccc3O)cnc2c1-c1ccc(F)cc1,–,inactive: 13%
Cc1ccc(Cn2nc(C)c(/C=N/NC(=O)c3cccnc3)c2C)cc1,–,inconclusive: -23.3%
Cn1c(C(=O)N2CCN(c3ccccc3)CC2)cc2cc(Cl)ccc21,–,inactive: 5.18%
